“And” between values parts separate entries of the source, which are not always exact repeats. Equal entries are not always repeated. Screen size: about 410,000 compounds; about 18,000 (4.4%) were called active. The inconclusive results got no clear call from the source; some entries with a clear call stand among them for comparison. Rule as the data show it: active = activity change below about -60%; inconclusive = no clear call, values can overlap the other calls; inactive = above about -39%.
test: qHTS Assay for inhibitors of the human cytomegalovirus (HCMV); conditions: HFF cells, HCMV-luciferase reporter, 72 h; at 57.5 µM; active compounds read low
In short: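 HFF cells seeded 16 h at 37C, treated with compounds, infected with luciferase-reporter HCMV at MOI 1 PFU/cell; luciferase read at 72 h post infection, normalized to buffer-only and Salinomycin controls.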
% is scaled to controls: 0 for no effect and ±100 for the full control effect.

Row | SMILES | activity change, negative = inhibition
1 | O=C(c1ccc(S(=O)(=O)NCc2ccco2)cc1)N1CCN(Cc2ccc3c(c2)OCO3)CC1 | active: -68.4%
2 | Cc1cc(C)cc(-n2cc(C(=O)O)c(=O)cc2C)c1 | active: -80.4%
3 | Cc1ccc(-c2nc(CS(=O)CC(=O)N3CCN(c4ccccc4)CC3)c(C)o2)cc1 (configuration not stated) | inconclusive: -41.6%
4 | CSc1nnc(-c2sc3cc(C(F)(F)F)cnc3c2-c2ccccc2)n1C | inconclusive: -40.3%
5 | O=C(NC1C(=O)NNC1c1ccc(Cl)cc1)c1ccc(F)cc1 (configuration not stated) | inactive: -36.6%
6 | CCn1ccc(C(=O)Nc2cccc(Cl)c2)n1 | inactive: 21.4%
7 | CC(C)CC(=O)c1c[nH]c(C(=O)O)c1 | inconclusive: -47.9%
8 | CC(=O)Nc1ccc(S(=O)(=O)Nc2cccc(-c3nc4cc(C)ccc4o3)c2)cc1 | inconclusive: -42.4%
9 | CCOC(=O)C1CN(S(=O)(=O)c2ccc(OC)cc2)c2cc(Cl)ccc2O1 (configuration not stated) | active: -61.8%
10 | COc1ccc(C(=O)NCCN2C(=O)S/C(=C\c3cccnc3)C2=O)c(OC)c1OC | inconclusive: -48%
11 | Cc1ccc(S(=O)(=O)c2c(N)n(/N=C/c3ccco3)c3nc4ccccc4nc23)cc1 | inactive: -7.62%
12 | CC(C)Oc1ccc(S(=O)(=O)N2CCOCC2)cc1NC(=O)CC1CC2CCC1C2 (configuration not stated) | inconclusive: -42.8%
13 | Cn1ncc2c(=O)n(/N=C/c3ccccc3)cnc21 | inconclusive: -41.7%
14 | CNc1c(NS(=O)(=O)c2ccc(CC(C)C)cc2)c(=O)oc2ccccc12 | inactive: -10.8%
15 | COC(=O)C1=C(c2ccc(OCc3ccccc3)cc2)C[C@@H]2CC[C@H]1N2C(=O)NCc1ccc(OC)c(OC)c1 | active: -60.7%
16 | CCOc1cc(/C=C/c2ccc3cccc([N+](=O)[O-])c3n2)cc(Cl)c1O | inconclusive: -56.8%
17 | Cc1[nH]c2ccccc2c1C(=O)CSc1nc2ncc(Cl)cc2[nH]1 | active: -62.3%
18 | COCC(C)N=C1NN=C(c2ccc(NC(C)=O)cc2)CS1 (configuration not stated) | inconclusive: -46.4%
19 | O=C(CC1(CC(=O)N2CCOCC2)CCCC1)Nc1ccccc1 | inactive: 0%
20 | O=C(NC1CCCCCC1)c1ccc([N+](=O)[O-])s1 | inconclusive: -55.8%
21 | Cc1cc(-n2c(C)cc(C(=O)COc3cc(F)ccc3[N+](=O)[O-])c2C)no1 | inconclusive: 0%
22 | COc1ccccc1C1C(C(N)=O)=C(C)Nc2nc(CCCO)nn21 (configuration not stated) | inconclusive: -44.4%

Row | SMILES | activity change, negative = inhibition
23 | Cn1c(=O)[nH]c(=O)c2c1nc1n(CCO)c(-c3ccccc3)cn21 | inactive: 1.78%
24 | O=C(Nc1ccccc1)Nc1nnc(Cc2ccc([N+](=O)[O-])cc2)s1 | inconclusive: -50.1%
25 | Cc1ccc(C)c(S(=O)(=O)N2CCC(c3nc4c(nnn4Cc4ccc5c(c4)OCCO5)c(=O)[nH]3)CC2)c1 | inactive: -14.8%
26 | Cc1ccc(-c2nn(CC(=O)NC3CCCCC3)c3c2cnc2ccc(F)cc23)cc1C | inactive: 29.9%
27 | Cc1nc(SCC(=O)NC(C)c2ccccc2)c2oc3ccccc3c2n1 (configuration not stated) | inconclusive: -52.3%
28 | CCOC(=O)N1CCN(CC(O)COCCC23CC4CC(CC(C4)C2)C3)CC1 (configuration not stated) | active: -61.9%
29 | Cc1ccc2nc(N3CCN(CCO)CC3)nc(-c3ccccc3)c2c1 | inconclusive: -59.9%
30 | CSC1=C(C#N)C(c2sccc2C)CC(=O)N1 (configuration not stated) | inactive: -31.1%
31 | Cc1sc2ncnc(N3CCC(C(=O)Nc4ccc(S(N)(=O)=O)cc4)CC3)c2c1C | active: -78.6%
32 | Cc1ccc2ccc(C#N)cc2c1O | inactive: -12.2%
33 | CC1CCC(C(C)C)C(OCC(O)CNC(C)c2ccccc2)C1 (configuration not stated) | active: -98.5%
34 | Cc1onc(-c2c(Cl)cccc2Cl)c1C(O)c1ccc(F)cc1 (configuration not stated) | inconclusive: -40.4%
35 | CN(C)CCOC(C)(c1ccccc1)c1ccccn1 (configuration not stated) | inconclusive: -49%
36 | CCCCn1c(-c2cccs2)nc2oc3ccccc3c(=O)c2c1=O | inconclusive: -42.6%
37 | CC(C(=O)Nc1ccc2nccnc2c1)N1C(=O)C2C3C=CC(C3)C2C1=O (configuration not stated) | inconclusive: -41.9%
38 | CC(C)COc1cccc(C(=O)NC(=S)NCc2cccnc2)c1 | inconclusive: -45.6%
39 | CCOc1ccccc1NC(=O)c1nc(S(=O)(=O)Cc2ccccc2)ncc1Cl | active: -109%
40 | Cc1ccc(-c2csc(N3CCC[C@@H]3C(=O)NCCn3c(C(F)(F)F)nc4ccccc43)n2)cc1 | inactive: -24.7%
41 | COc1ccc(NC(=O)[C@@H](c2ccccc2)N2Cc3ccccc3C2=O)cc1OC | inactive: 5.73%
42 | O=C(Nc1ccc(SC(F)F)cc1)c1cc(-c2ccc3c(c2)OCCO3)on1 | active: -66.4%
43 | CN(Cc1ccccc1)S(=O)(=O)c1cccc2nsnc12 | inactive: -23.2%
44 | CCOC(=O)CC(=O)NC1(Cc2ccc(O)cc2)CCCCC1 | inactive: 19.5%

Row | SMILES | activity change, negative = inhibition
45 | C=C[C@]1(C)C=C2C(=O)[C@@]3(O)OC(=O)[C@@]4(CCCC(C)(C)[C@H]34)[C@@]2(O)CC1 | active: -101%
46 | COCCCNC(=O)CC(NS(=O)(=O)c1ccc(Cl)cc1)c1ccc(OC)cc1 (configuration not stated) | inconclusive: -53.8%
47 | CC1(C)CCC(C)(C)NC(=S)N1 | inconclusive: -44.5%
48 | C[C@@]12C(=O)Nc3ccccc3C(=O)N1[C@H]1c3cc(Br)ccc3OC[C@@H]1[C@@H]2c1ccccc1 | inconclusive: -48.6%
49 | Cc1cc(Nc2cccc(Cl)c2)n2ncnc2n1 | inactive: 20.6%
50 | O=C(c1ccc(S(=O)(=O)NCC2CCCO2)cc1)N1CCN(c2cccc(Cl)c2)CC1 (configuration not stated) | active: -70.1%
51 | NC(=O)C1CCN(C(=O)CCn2c(=O)oc3ccccc32)CC1 | inactive: 50.3%
52 | CCCSc1ccc([C@H]2N[C@@](C)(C(=O)OC)[C@H]3C(=O)N(C)C(=O)[C@@H]23)cc1OC | inactive: -13.2%
53 | Cc1cccc(-n2c(SCC(N)=O)nc3c(oc4ccccc43)c2=O)c1 | inconclusive: -44.8%
54 | CC(C)(C)C(=O)COC(=O)c1cccc(NC(=O)c2ccco2)c1 | inconclusive: -50.7%
55 | O=C(c1cc2c(=O)oc3ccccc3c2s1)N1CCN(c2cccc(Cl)c2)CC1 | active: -62.5%
56 | NC1=NC[C@H](Cc2ccc(O)cc2)N1CCCCC1CCCCC1 | active: -90.5%
57 | COc1ccc(-c2cn(-c3ccccc3)c3[n+]2CCS3)cc1 | active: -100% and active: -99.8%
58 | COC(=O)/C(=C/c1ccc2c(c1)c1ccccc1n2C)NC(=O)c1ccccc1 | inconclusive: -48.9%
59 | CC(C)OC(=O)CSc1nnc(-c2ccccn2)n1N | inconclusive: -48.8%
60 | Cc1ccccc1COc1cccc(/C=N/NC(=O)c2nnn(-c3nonc3N)c2C)c1 | inconclusive: -46.3%
61 | CCCCC(CC)C(=O)Nc1ccc(S(=O)(=O)N2CCCC2)cc1 (configuration not stated) | inactive: 14.6%
62 | COc1ccc(/C=C/C(=O)Nc2ccccc2C)cc1S(=O)(=O)N1CCOCC1 | inconclusive: -47.6%
63 | Clc1ccc2c(N3CCNCC3)ccnc2c1 | active: -109%
64 | CCn1c2nc(SCCN3CCOCC3)nnc2c2cc(C)cc(C)c21 | inconclusive: -51.6%
65 | CC1(C(=O)Nc2ccc(Cl)c(Cl)c2)CCN1Cc1ccccc1OC(F)F (configuration not stated) | inactive: 122%
66 | O=C(CC1N=C2c3ccccc3N=C(SCc3ccccc3Cl)N2C1=O)NCc1ccco1 (configuration not stated) | inconclusive: -43.5%

Four structures out of the list, sorted by SMILES length, falling:
Row | SMILES | activity change, negative = inhibition
23 | Cn1c(=O)[nH]c(=O)c2c1nc1n(CCO)c(-c3ccccc3)cn21 | inactive: 1.78%
34 | Cc1onc(-c2c(Cl)cccc2Cl)c1C(O)c1ccc(F)cc1 (configuration not stated) | inconclusive: -40.4%
20 | O=C(NC1CCCCCC1)c1ccc([N+](=O)[O-])s1 | inconclusive: -55.8%
47 | CC1(C)CCC(C)(C)NC(=S)N1 | inconclusive: -44.5%

The list continues.

Row | SMILES | activity change, negative = inhibition
67 | COc1ccc(CCC(C)NCc2ccc(F)cc2)cc1 (configuration not stated) | inactive: -4.5%
68 | CN(C(=O)COC(=O)C1COc2ccccc2O1)C1(C#N)CCCCC1 (configuration not stated) | inconclusive: -40.1%
69 | CCOc1ccc(C(=O)N/N=C(\c2ccccc2)c2ccccn2)cc1 | active: -98.8%
70 | CN1CCN(CC(O)COc2ccccc2)CC1 (configuration not stated) | inactive: -4.65%
71 | COc1cc(C2NC(=S)NC(C)=C2C(=O)Nc2ccc(C)cc2)ccc1O (configuration not stated) | inactive: -23.8%
72 | O=C(Nc1ccc(F)cc1)[C@H](Cc1ccccc1)N1Cc2ccccc2C1=O | inactive: 3.51%
73 | Cn1nnnc1SCCCNCc1cccc(OCc2ccc(Cl)cc2)c1 | inactive: 12.4%
74 | CCN(CC(=O)Nc1ccc(NC(C)=O)cc1)CC(=O)Nc1ccc(Cl)c(Cl)c1 | inactive: -0.685%
75 | O=C1C=C(N2CCN(C(=O)c3ccccc3)CC2)C2(CCCCC2)O1 | active: -77.4%
76 | Cc1ccccc1OCc1ccc(-c2nc(C#N)c(NCCCN(C)C)o2)o1 | inconclusive: -53.3%
77 | COc1ccc(NS(=O)(=O)c2cccc(NC(=O)c3ccccn3)c2)cc1 | inconclusive: -57.8%
78 | CC1(C(=O)NS(=O)(=O)c2cccc(Cl)c2)CCN1C(=O)Cc1cc(F)ccc1F (configuration not stated) | inactive: -15.8%
79 | CC(=O)Nc1ccc(NC(=O)c2ccc(NS(=O)(=O)c3cccc4cccnc34)cc2)cc1 | inactive: -22.1%
80 | O=C(N/N=C/c1ccccn1)c1ccc(Cl)cc1 | active: -97.5%
81 | CCOc1ccc(CNC(=O)c2cc3oc4ccccc4c3n2C)cc1 | active: -91.5% and active: -83.2%
82 | Cc1ccc(OCc2ccc(C(=O)NCc3cccnc3)cc2)cc1C | active: -72.3%
83 | COc1cc(-c2noc(C)c2C#Cc2ccccn2)cc(OC)c1OC | inactive: -17.6%
84 | COc1ccc(-c2ccc(C(=O)NCC3CCOCC3)c3occc23)c(C)c1 | inconclusive: -48.4%
85 | CC(=O)C1=C(C)N(Cc2ccc(Br)cc2)C(=S)NC1c1cccc(Cl)c1 (configuration not stated) | inactive: -13%
86 | CCN(CC)CCCNC(=O)c1cc2nc3c(c(C(F)(F)F)n2n1)CCc1ccccc1-3 | inconclusive: -41.9%
87 | C=CCSc1nnc2n(-c3ccccc3OC)c(=O)c3c4c(sc3n12)CCC4 | inconclusive: -41.8%
